Reference: publication PMC5039417 (Biomolecules, 2016)
Where a sequence shows no end group, the ends are not given.

Experiment: peptide made by a vendor
Conditions: whole synthesis, mass spectrometry

LLLLTVLTV
purity (crude or final not stated): 42%
